# Results published in paper PMC12236914.
# Sequences of proteins named here, by UniProt entry; tags and fusion partners are left off.
# UniProt P39748: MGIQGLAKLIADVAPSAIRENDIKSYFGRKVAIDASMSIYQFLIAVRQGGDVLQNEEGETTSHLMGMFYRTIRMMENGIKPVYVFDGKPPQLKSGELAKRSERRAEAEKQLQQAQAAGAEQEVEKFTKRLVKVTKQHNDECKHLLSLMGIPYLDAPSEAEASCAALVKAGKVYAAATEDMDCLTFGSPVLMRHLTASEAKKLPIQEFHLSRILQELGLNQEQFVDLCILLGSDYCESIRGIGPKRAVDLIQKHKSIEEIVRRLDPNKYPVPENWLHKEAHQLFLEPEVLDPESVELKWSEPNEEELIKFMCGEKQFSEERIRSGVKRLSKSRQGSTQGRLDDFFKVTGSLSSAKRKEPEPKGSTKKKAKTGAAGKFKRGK
# No constants are given. Whether binding was seen depends on the method and setting. In cells and extracts the contact can be indirect. Some results given as binding are weak or reduced against the parent protein; the word gives no strength.
# Biological target: Flag-tagged FEN1 (UniProt P39748)
# Assay: co-IP; reciprocal co-IP from 293T cells co-expressing FANCA and FEN1; NETN lysis buffer, sonication, protein G beads, overnight at 4 °C
binder,measurement,value
"FANCA full-length (protein, UniProt O15360 1-1455) MSDSWVPNSASGQDPGGRRRAWAELLAGRVKREKYNPERAQKLKESAVRLLRSHQDLNALLLEVEGPLCKKLSLSKVIDCDSSEAYANHSSSFIGSALQDQASRLGVPVGILSAGMVASSVGQICTAPAETSHPVLLTVEQRKKLSSLLEFAQYLLAHSMFSRLSFCQELWKIQSSLLLEAVWHLHVQGIVSLQELLESHPDMHAVGSWLFRNLCCLCEQMEASCQHADVARAMLSDFVQMFVLRGFQKNSDLRRTVEPEKMPQVTVDVLQRMLIFALDALAAGVQEESSTHKIVRCWFGVFSGHTLGSVISTDPLKRFFSHTLTQILTHSPVLKASDAVQMQREWSFARTHPLLTSLYRRLFVMLSAEELVGHLQEVLETQEVHWQRVLSFVSALVVCFPEAQQLLEDWVARLMAQAFESCQLDSMVTAFLVVRQAALEGPSAFLSYADWFKASFGSTRGYHGCSKKALVFLFTFLSELVPFESPRYLQVHILHPPLVPGKYRSLLTDYISLAKTRLADLKVSIENMGLYEDLSSAGDITEPHSQALQDVEKAIMVFEHTGNIPVTVMEASIFRRPYYVSHFLPALLTPRVLPKVPDSRVAFIESLKRADKIPPSLYSTYCQACSAAEEKPEDAALGVRAEPNSAEEPLGQLTAALGELRASMTDPSQRDVISAQVAVISERLRAVLGHNEDDSSVEISKIQLSINTPRLEPREHMAVDLLLTSFCQNLMAASSVAPPERQGPWAALFVRTMCGRVLPAVLTRLCQLLRHQGPSLSAPHVLGLAALAVHLGESRSALPEVDVGPPAPGAGLPVPALFDSLLTCRTRDSLFFCLKFCTAAISYSLCKFSSQSRDTLCSCLSPGLIKKFQFLMFRLFSEARQPLSEEDVASLSWRPLHLPSADWQRAALSLWTHRTFREVLKEEDVHLTYQDWLHLELEIQPEADALSDTERQDFHQWAIHEHFLPESSASGGCDGDLQAACTILVNALMDFHQSSRSYDHSENSDLVFGGRTGNEDIISRLQEMVADLELQQDLIVPLGHTPSQEHFLFEIFRRRLQALTSGWSVAASLQRQRELLMYKRILLRLPSSVLCGSSFQAEQPITARCEQFFHLVNSEMRNFCSHGGALTQDITAHFFRGLLNACLRSRDPSLMVDFILAKCQTKCPLILTSALVWWPSLEPVLLCRWRRHCQSPLPRELQKLQEGRQFASDFLSPEAASPAPNPDWLSAAALHFAIQQVREENIRKQLKKLDCEREELLVFLFFFSLMGLLSSHLTSNSTTDLPKAFHVCAAILECLEKRKISWLALFQLTESDLRLGRLLLRVAPDQHTRLLPFAFYSLLSYFHEDAAIREEAFLHVAVDMYLKLVQLFVAGDTSTVSPPAGRSLELKGQGNPVELITKARLFLLQLIPRCPKKSFSHVAELLADRGDCDPEVSAALQSRQQAAPDADLSQEPHLF",binding,binds
